This list was built around the results that the source calls inconclusive (neither active nor inactive); the mix of calls is not that of the screen. Potencies of inconclusive entries are doubtful fits and often do not repeat. Calls of active or inactive are those of the source. The call rests on the fitted dose curve; in most records, active means well fitted cell-killing curve with a large enough effect; inconclusive means small, poorly fitted or top-dose-only effect, or effect the other way; inactive means no such curve, though single readings can be large or run the other way.
Experiment: Quantitative High-Throughput drug screen in 47 multiple myeloma cell lines against the NCATS MIPE library collection: EJM_DSMZ cell viability assay (AID 1918926; further: nearly all actives have a fitted effect of over 30% in size;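 on viability, % of control: 100% = DMSO-only wells and 0% = media-only wells without cells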)
Conditions: EJM myeloma cell viability, CellTiter-Glo ATP, 48 h; series mostly up to 45.8 µM; viability, % of control: at the top concentration
Procedure, shortened: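 qHTS of the MIPE 4.0 collection: 500 myeloma cells/well, 48 h drug exposure at 37C in 5% CO2, then CellTiter-Glo for 5 min at room temperature before luminescence reading.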
Potency means the concentration at half of the fitted maximal effect.

SMILES	Potency	viability, % of control
CCc1cc2c(cc1N1CCC(N3CCOCC3)CC1)C(C)(C)c1[nH]c3cc(C#N)ccc3c1C2=O	inconclusive: 16.6 µM [cytotoxic, partial curve, poor fit]	
C#Cc1cccc(Nc2ncnc3cc(OCCOC)c(OCCO)cc23)c1	inconclusive: 2.64 µM [cytotoxic, full curve]	
CC1(C)[C@H]2CC[C@]3(C)[C@@H](C(=O)C=C4[C@@H]5C[C@@](C)(C(=O)O)CC[C@]5(C)CC[C@]43C)[C@@]2(C)CC[C@@H]1O		inactive: 111%
COc1c(C)c2c(c(O)c1CC=C(C)CCC(=O)O)C(=O)OC2	inconclusive: 11.8 µM [cytotoxic, partial curve, poor fit]	
COc1ccc(CCC(=O)Nc2nc3ccc(Cl)cc3s2)cc1OC	inconclusive: 3.72 µM [cytotoxic, full curve, poor fit]	
CC(C)CN(C[C@H](O)[C@H](Cc1ccccc1)NC(=O)O[C@H]1CCOC1)S(=O)(=O)c1ccc(N)cc1	inconclusive: 1.48 µM [cytotoxic, full curve]	
Cc1ccc(C(=O)N(CCCN)[C@@H](c2nc3cc(Cl)ccc3c(=O)n2Cc2ccccc2)C(C)C)cc1	inconclusive: 33.2 µM [cytotoxic, single point]	
COc1cc2ncnc(Nc3cccc(Br)c3)c2cc1OC	inconclusive: 0.0053 µM [cytotoxic, full curve]	
C[C@@H](N)C1CCC(C(=O)Nc2ccncc2)CC1 (some centres undefined)		inactive: 103%

Structures from the list above that have a Cl atom (two):
SMILES	Potency	viability, % of control
COc1ccc(CCC(=O)Nc2nc3ccc(Cl)cc3s2)cc1OC	inconclusive: 3.72 µM [cytotoxic, full curve, poor fit]	
Cc1ccc(C(=O)N(CCCN)[C@@H](c2nc3cc(Cl)ccc3c(=O)n2Cc2ccccc2)C(C)C)cc1	inconclusive: 33.2 µM [cytotoxic, single point]	

— PubChem BioAssay (NCATS)
